Experimental findings from PMC4802085 are described below.

Amino acid sequences for entries named in this document (tags omitted). A change or cut given only in a name is not applied to a line headed by its entry. Chains listed by the source or under a name are the forms on record and can include a tag or linker. Residues count along the entry.
FLAG-PGRMC1 wild-type (a.a.44–195) (O00264, residues 44-195): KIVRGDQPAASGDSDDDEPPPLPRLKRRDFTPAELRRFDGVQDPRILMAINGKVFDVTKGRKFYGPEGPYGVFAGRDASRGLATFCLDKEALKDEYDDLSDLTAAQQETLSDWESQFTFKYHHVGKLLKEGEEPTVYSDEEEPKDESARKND
FLAG-PGRMC1 Y113F mutant (a.a.44–195) (O00264, form named): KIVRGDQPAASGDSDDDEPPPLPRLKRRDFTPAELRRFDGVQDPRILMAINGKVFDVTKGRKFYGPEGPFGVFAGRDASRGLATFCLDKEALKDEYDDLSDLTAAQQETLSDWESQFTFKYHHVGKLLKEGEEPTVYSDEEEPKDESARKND
UniProt P08684: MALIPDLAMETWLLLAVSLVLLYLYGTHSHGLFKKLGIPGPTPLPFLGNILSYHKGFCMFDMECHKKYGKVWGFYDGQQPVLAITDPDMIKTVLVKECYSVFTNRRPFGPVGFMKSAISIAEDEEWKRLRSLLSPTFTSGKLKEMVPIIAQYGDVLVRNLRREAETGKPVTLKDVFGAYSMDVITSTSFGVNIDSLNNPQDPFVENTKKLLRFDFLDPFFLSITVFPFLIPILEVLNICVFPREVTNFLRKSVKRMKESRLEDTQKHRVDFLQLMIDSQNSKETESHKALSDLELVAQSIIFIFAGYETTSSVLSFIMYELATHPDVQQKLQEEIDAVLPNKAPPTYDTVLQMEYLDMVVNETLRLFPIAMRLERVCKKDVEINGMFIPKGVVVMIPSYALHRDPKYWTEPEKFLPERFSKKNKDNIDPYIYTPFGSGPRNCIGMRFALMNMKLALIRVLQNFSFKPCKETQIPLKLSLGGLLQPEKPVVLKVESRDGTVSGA

Results are given in words; binding and its absence hold for the method and conditions named. In cells and extracts the contact can be indirect. For part of these data: A result given as binding can be weak or reduced; the word gives no strength.

For experiment [1], the target named is FLAG-PGRMC1 wild-type (a.a.44–195) (human) (UniProt O00264). As to the kind of experiment: co-IP; in vitro binding assay as a18 with FLAG-PGRMC1 in apo form (no haemin); only the target purified.
The target in experiment [2] is FLAG-PGRMC1 Y113F mutant (a.a.44–195) (human) (UniProt O00264). As to the kind of experiment: co-IP; in vitro binding assay: 1 μg CYP1A2 or CYP3A4 (microsomal formulation containing cytochrome b5 and cytochrome P450 reductase) with 10 μg FLAG-PGRMC1 (a.a.44–195) treated with 50 μmol l^−1 haemin, anti-FLAG (M2) agarose; 20 mmol l^−1 HEPES-NaOH (pH 7.9), 100 mmol l^−1 NaCl, 0.2 mmol l^−1 EDTA, 10% glycerol, 0.1% NP40, room temperature; only the target purified.

Experiment [3] deals with FLAG-PGRMC1 wild-type (a.a.44–195) (human) (UniProt O00264). The description is as above.

For the substance “Recombinant CYP3A4 (from UniProt P08684) (enzyme)”, the binding result is “no binding (only without haem (apo form))” in experiment [1], “no binding” in experiment [2] and “binds” in experiment [3].
